Source: the supplement of paper PMC10849652
The list shows a part of the results.

Protein sequences, listed by entry. Tags and fused reporters are not part of them. Lines headed by an entry give the natural chain unless they say otherwise; changes in a name come on top.
UniProt Q6UUV7: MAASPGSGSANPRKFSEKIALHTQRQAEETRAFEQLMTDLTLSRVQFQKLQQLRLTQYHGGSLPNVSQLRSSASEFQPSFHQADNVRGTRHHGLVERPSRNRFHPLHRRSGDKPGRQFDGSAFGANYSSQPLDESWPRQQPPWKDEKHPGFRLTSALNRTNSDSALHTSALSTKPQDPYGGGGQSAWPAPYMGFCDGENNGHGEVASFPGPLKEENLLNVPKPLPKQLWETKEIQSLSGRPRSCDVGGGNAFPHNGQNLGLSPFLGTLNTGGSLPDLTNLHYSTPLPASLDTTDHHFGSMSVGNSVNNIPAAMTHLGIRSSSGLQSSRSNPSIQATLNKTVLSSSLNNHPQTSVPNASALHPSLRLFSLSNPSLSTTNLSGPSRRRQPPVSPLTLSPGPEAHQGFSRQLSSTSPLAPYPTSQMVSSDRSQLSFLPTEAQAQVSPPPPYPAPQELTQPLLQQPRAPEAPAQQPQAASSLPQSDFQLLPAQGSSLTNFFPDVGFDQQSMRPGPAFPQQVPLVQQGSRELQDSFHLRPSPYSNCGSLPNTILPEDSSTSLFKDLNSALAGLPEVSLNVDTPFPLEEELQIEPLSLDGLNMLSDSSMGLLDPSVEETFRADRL
UniProt P01036: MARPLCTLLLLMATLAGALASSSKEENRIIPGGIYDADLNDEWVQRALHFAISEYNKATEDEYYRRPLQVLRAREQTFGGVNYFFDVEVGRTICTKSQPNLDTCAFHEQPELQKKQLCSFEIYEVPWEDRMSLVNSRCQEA
UniProt H7BZ55: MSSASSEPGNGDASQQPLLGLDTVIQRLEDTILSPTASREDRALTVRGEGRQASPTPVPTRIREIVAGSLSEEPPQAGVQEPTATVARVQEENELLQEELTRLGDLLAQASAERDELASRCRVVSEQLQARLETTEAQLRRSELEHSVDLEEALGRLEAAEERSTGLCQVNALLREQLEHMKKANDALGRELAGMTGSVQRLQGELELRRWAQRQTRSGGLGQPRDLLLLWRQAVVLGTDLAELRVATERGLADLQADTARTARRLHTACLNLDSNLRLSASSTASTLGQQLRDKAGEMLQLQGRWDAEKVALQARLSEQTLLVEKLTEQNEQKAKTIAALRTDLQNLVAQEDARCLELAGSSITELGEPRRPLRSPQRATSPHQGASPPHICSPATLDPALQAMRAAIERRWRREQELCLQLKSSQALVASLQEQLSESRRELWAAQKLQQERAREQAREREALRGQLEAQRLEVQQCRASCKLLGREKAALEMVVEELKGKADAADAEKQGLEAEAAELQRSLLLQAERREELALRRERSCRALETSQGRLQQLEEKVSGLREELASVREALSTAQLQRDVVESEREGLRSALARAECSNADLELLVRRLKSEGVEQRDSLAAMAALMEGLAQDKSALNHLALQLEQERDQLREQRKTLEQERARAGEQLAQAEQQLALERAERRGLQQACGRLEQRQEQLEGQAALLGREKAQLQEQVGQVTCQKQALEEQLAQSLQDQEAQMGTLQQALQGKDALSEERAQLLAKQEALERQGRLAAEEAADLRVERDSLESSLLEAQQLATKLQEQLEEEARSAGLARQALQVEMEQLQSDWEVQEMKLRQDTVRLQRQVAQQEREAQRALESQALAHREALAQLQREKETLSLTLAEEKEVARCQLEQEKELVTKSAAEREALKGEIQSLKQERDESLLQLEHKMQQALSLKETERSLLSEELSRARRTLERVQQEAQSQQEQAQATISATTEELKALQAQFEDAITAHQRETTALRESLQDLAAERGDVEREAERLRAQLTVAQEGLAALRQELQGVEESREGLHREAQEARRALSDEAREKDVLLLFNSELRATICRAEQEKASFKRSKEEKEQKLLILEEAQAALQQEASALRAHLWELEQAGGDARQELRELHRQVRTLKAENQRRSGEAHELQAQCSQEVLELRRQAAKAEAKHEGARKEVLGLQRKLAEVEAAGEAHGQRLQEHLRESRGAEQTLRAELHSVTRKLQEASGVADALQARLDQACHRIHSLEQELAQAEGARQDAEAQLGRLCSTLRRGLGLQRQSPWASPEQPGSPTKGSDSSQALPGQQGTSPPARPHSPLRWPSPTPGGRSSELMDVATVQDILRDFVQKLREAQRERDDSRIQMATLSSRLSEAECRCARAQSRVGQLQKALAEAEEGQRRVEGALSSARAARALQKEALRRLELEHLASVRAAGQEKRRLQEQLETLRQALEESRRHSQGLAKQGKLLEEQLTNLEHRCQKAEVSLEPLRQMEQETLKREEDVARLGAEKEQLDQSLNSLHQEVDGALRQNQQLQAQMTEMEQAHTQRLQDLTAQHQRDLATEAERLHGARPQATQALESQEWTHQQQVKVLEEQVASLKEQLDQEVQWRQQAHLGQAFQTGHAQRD
UniProt Q6UUV9: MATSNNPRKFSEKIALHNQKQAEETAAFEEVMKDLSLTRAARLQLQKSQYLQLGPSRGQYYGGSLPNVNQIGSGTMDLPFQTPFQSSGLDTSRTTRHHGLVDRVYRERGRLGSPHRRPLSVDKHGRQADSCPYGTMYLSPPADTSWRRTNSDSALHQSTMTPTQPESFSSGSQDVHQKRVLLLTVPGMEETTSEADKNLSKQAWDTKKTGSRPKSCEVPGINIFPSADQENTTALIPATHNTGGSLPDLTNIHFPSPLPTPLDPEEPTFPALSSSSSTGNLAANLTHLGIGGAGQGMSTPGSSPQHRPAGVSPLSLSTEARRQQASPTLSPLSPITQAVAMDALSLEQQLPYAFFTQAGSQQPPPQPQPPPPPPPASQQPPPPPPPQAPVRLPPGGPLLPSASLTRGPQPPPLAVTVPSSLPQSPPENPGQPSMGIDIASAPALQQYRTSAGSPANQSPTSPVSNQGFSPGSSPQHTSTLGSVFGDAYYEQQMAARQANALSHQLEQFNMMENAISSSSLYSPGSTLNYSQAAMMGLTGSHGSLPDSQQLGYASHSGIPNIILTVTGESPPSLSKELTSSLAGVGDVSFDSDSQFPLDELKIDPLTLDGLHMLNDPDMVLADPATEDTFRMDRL
UniProt Q70SY1: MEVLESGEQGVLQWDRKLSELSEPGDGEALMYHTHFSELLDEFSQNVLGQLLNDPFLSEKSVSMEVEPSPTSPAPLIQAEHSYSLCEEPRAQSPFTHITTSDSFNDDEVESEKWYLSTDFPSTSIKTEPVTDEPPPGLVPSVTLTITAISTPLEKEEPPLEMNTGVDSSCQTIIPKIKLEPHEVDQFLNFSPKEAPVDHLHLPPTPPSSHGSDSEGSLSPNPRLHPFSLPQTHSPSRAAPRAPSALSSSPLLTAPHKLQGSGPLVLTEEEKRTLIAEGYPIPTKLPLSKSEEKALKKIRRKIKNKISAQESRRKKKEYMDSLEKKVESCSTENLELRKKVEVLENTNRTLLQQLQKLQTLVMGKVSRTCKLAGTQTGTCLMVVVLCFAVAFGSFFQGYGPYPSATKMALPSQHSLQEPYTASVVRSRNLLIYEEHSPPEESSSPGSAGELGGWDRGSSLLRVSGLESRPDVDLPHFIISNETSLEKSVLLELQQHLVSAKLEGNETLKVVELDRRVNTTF
UniProt Q16619: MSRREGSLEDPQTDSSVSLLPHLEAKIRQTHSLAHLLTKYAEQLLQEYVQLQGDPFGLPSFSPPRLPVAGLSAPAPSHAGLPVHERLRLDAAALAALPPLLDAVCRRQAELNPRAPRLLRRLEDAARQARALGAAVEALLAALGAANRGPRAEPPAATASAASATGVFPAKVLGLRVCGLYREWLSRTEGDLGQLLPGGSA
UniProt P52943: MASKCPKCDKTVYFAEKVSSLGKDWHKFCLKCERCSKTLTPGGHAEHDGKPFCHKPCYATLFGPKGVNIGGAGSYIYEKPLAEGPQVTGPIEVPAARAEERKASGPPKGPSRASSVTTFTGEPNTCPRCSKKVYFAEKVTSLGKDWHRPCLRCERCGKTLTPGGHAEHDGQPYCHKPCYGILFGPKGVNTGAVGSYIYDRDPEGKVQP
UniProt O75575: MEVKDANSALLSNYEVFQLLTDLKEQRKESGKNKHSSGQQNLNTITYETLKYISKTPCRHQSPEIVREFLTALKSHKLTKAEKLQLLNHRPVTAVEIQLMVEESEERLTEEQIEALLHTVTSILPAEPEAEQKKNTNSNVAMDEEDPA
UniProt Q9NXE8: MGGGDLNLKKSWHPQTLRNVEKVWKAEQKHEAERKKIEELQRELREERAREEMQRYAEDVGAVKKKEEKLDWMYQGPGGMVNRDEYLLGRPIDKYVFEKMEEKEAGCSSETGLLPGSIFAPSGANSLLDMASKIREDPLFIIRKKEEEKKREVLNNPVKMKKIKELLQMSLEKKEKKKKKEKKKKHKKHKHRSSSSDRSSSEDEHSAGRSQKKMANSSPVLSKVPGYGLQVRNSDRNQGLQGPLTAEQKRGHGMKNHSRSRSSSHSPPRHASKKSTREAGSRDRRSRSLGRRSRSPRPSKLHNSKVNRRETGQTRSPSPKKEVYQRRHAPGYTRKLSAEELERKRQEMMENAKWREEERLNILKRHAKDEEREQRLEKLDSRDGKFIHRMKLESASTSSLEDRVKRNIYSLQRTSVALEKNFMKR
UniProt O43310: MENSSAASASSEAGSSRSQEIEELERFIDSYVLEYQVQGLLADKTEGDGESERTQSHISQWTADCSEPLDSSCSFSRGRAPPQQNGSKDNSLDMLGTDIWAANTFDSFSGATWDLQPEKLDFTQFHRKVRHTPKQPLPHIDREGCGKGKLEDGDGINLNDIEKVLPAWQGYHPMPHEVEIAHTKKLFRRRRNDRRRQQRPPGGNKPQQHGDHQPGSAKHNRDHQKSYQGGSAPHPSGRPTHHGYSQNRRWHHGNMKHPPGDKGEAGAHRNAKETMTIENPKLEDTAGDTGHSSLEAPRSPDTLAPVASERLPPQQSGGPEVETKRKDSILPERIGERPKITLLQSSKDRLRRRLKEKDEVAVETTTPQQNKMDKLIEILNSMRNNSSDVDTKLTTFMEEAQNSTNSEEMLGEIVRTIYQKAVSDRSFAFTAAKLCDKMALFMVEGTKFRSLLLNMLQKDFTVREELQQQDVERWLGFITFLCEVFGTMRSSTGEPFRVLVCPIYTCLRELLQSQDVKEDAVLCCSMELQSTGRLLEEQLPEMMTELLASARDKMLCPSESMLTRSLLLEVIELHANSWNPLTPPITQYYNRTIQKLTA
UniProt Q9GZU7: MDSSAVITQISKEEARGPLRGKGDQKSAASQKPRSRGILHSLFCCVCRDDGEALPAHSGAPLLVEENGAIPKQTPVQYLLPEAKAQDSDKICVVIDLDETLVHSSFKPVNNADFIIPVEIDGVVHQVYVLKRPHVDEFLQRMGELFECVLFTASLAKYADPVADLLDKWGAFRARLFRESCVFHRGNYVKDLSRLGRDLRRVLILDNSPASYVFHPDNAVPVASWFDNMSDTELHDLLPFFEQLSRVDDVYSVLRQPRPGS
UniProt Q16527: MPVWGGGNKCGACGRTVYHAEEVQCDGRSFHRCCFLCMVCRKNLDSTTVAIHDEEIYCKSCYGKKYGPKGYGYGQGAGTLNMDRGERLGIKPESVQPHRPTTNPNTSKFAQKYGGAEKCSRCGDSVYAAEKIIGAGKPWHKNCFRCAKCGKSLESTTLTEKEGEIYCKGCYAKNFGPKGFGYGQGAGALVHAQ
UniProt Q8N6G5: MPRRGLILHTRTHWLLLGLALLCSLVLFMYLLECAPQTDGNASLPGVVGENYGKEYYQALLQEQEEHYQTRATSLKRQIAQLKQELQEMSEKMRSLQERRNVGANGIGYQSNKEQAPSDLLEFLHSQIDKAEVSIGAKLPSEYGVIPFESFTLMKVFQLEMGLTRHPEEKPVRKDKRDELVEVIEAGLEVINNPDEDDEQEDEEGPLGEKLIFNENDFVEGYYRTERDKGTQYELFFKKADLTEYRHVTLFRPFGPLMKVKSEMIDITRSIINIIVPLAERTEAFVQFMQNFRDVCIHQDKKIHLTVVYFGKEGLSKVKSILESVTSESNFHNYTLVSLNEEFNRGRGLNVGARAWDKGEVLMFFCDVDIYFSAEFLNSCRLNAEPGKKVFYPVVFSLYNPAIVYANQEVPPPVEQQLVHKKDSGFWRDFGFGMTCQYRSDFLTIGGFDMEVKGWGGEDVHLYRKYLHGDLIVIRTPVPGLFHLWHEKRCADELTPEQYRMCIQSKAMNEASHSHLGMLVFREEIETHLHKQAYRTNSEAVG

How the values were obtained:
Test in all cases: log2 fold change, soluble protein after heating vs DMSO (PISA); higher = thermal stabilisation; K562 lysate, 10 uM; active = over 0.2 and 3.5 SD of the protein, either way, in both replicates (recomputed)
erlotinib = compound: C#Cc1cccc(Nc2ncnc3cc(OCCOC)c(OCCOC)cc23)c1 [erlotinib]
Outline: (§1)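 Values give the log-two fold change in thermal stability against solvent controls, from duplicates. Crude K562 extract at 1 mg/mL protein, made by dounce homogenisation in PBS pH 7.4 with 1 mM MgCl2, was treated with 10 μM compound for 30 min. After 3 min heating across 48°C-58°C, aliquots were pooled, adjusted to 0.5% NP-40 at 4°C and centrifuged at 21,000xg for 90 min. The supernatant was measured by TMTpro 16plex LC-MS/MS with channel sums equalised.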

[1] = compound: C/C(=N\NC(=O)C1=CC(=CC=C1)S(=O)(=O)N2CCOCC2)/C3=C(C=CC(=C3)Cl)O
Outline: as §1

[2] = compound: C1=CC(=CC=C1C2=NC3=C(N2)C=C(C=C3)C(=O)N)OC4=CC=C(C=C4)Cl
Outline: as §1

[3] = compound: C1=CC2=C(C=CC(=C2)/C=C\3/C(=O)NC(=NCC4=CC=CS4)S3)N=C1
Outline: as §1

[4] = compound: C1=CC2=NC=CN=C2C=C1/C=C/3\C(=O)NC(=O)S3
Outline: as §1

[5] = compound: C1=CC=C(C=C1)C2=NC(=C(N2)C3=CC=NC=C3)C4=CC(=C(C=C4)Cl)O
Outline: as §1

[6] = compound: C1=CC=C2C(=C1)C3=NNC4=CC=CC(=C43)C2=O
Outline: as §1

[7] = compound: C1CCN(C1)C(=O)NC2=CC=CC(=C2)NC3=NC=C(C(=N3)NCCC4=CN=CN4)Br
Outline: as §1

[8] = compound: C1CN(CCC1(CC2=CC=C(C=C2)Cl)N)C3=NC=NC4=C3C=CN4
Outline: as §1

IRAK-1-4 Inhibitor I = compound: C1COCCN1CCN2C3=CC=CC=C3N=C2NC(=O)C4=CC(=CC=C4)[N+](=O)[O-] [IRAK-1-4 Inhibitor I]
Outline: as §1

ibrutinib = compound: C=CC(=O)N1CCC[C@@H](n2nc(-c3ccc(Oc4ccccc4)cc3)c3c(N)ncnc32)C1 [ibrutinib]
Outline: as §1

ralimetinib = compound: CC(C)(C)Cn1c(N)nc2ccc(-c3[nH]c(C(C)(C)C)nc3-c3ccc(F)cc3)nc21 [ralimetinib]
Outline: as §1

[9] = compound: CC(C)(O)CC(=O)NCCn1ccc2ncnc(Nc3ccc(Oc4cccc(C(F)(F)F)c4)c(Cl)c3)c21
Outline: as §1

[10] = compound: CC(C)C1=C2N=C(C=C(N2N=C1)NCC3=CC=CC=C3)NCCCCCCN
Outline: as §1

[11] = compound: CC1=C(C2=C(C=C1)C(=O)C3=CC=CC=C3N2CCCN)C
Outline: as §1

[12] = compound: CC1=C(C=C(C=C1)NC(=O)C2=CC(=CC=C2)C(C)(C)C#N)NC3=CC4=C(C=C3)N=CN(C4=O)C
Outline: as §1

[13] = compound: CC1=C(C=C(C=C1)NC(=O)C2=CC(=CC=C2)N(C)C)NC(=O)C3=CC=C(C=C3)O
Outline: as §1

[14] = compound: CC(=O)c1cnc2ccc(-c3cc(Cl)c(O)c(Cl)c3)nc2c1N[C@H]1CC[C@H](CN(C)C)CC1
Outline: as §1

[15] = compound: CC1=CC=C(C=C1)SC2=C3C=C(SC3=CN=C2)C(=O)N
Outline: as §1

[16] = compound: CC1=C(C(CC(=O)N1)C2=CC=C(C=C2)C(F)(F)F)C(=O)NC3=C(C=C4C(=C3)C=NN4)F
Outline: as §1

Measured: log2 fold change

CRTC3 (UniProt Q6UUV7)
inactive: erlotinib 0.039 | [1] -0.268 | [2] 0.042 | [3] 0.06 | [4] -0.118 | [5] -0.017 | [6] -0.131 | [7] 0.029 | [8] -0.012 | IRAK-1-4 Inhibitor I -0.011 | ibrutinib -0.057 | ralimetinib 0.093 | [9] -0.05 | [10] 0.01 | [11] -0.008 | [12] -0.011 | [13] -0.029

CST4 (UniProt P01036)
inactive: erlotinib 0.079 | [2] -0.108 | [4] -0.095 | [5] 0 | [7] -0.127 | [8] 0.337 | IRAK-1-4 Inhibitor I 0.041 | ibrutinib 0.18 | [14] -0.337 | ralimetinib -0.008 | [9] 0.611 | [10] 0.847 | [11] 0.227 | [13] -0.152 | [15] -0.097

CROCC2 (UniProt H7BZ55)
inactive: erlotinib -0.066 | [2] -0.09 | [4] -0.04 | [7] -0.079 | [8] -0.032 | ibrutinib 0.228 | [14] -0.021 | [10] -0.06 | [11] -0.109 | [12] 0.086 | [15] -0.011

CRTC1 (UniProt Q6UUV9)
inactive: erlotinib -0.046 | [1] 0.014 | [2] -0.035 | [3] -0.062 | [4] -0.074 | [5] 0.042 | [6] -0.148 | [7] 0.1 | [8] 0.036 | IRAK-1-4 Inhibitor I 0.084 | ibrutinib 0.091 | [14] 0.072 | ralimetinib -0.083 | [9] -0.061 | [10] -0.007 | [11] -0.11 | [12] -0.008 | [13] 0.01 | [15] -0.069

CREB3L2 (UniProt Q70SY1)
inactive: erlotinib -0.004 | [1] 0.013 | [2] -0.02 | [3] -0.187 | [4] -0.01 | [5] 0.027 | [6] 0.067 | [7] 0.007 | [8] 0.043 | IRAK-1-4 Inhibitor I 0.03 | ibrutinib -0.029 | [14] 0.002 | ralimetinib -0.133 | [9] -0.061 | [10] -0.031 | [16] 0.102 | [11] -0.135 | [13] 0.061 | [15] -0.148

CTF1 (UniProt Q16619)
inactive: erlotinib -0.067 | [1] 0.032 | [2] 0.022 | [3] -0.054 | [5] -0.154 | [6] 0.043 | [7] 0.182 | [8] 0.033 | IRAK-1-4 Inhibitor I 0.082 | [14] 0.111 | ralimetinib -0.099 | [9] 0.037 | [10] 0.056 | [11] 0.068 | [12] 0.11 | [13] -0.209 | [15] -0.015

CRYM-AS1 (UniProt A6NIL9)
inactive: erlotinib 0.065 | [1] 0.166 | [2] 0.193 | [3] -0.319 | [4] 0.205 | [5] -0.149 | [6] -0.475 | [7] 0.084 | [8] 0.151 | IRAK-1-4 Inhibitor I 0.1 | ibrutinib 0.129 | [14] -0.197 | ralimetinib -0.146 | [9] -0.439 | [10] -0.048 | [16] -0.032 | [12] 0.009 | [13] -0.058 | [15] -0.092

CRIP2 isoform 2 (UniProt P52943)
inactive: erlotinib 0.023 | [2] -0.125 | [4] 0.033 | [5] 0.078 | IRAK-1-4 Inhibitor I 0.054 | ibrutinib 0.214 | [14] 0.008 | ralimetinib -0.042 | [9] 0.131 | [10] -0.022 | [16] 0.05 | [11] 0.186 | [12] 0.082 | [13] 0.112 | [15] -0.07

CRCP (UniProt O75575)
inactive: erlotinib -0.074 | [1] -0.075 | [2] 0.028 | [3] -0.033 | [4] 0.022 | [5] -0.032 | [6] 0.052 | [7] -0.023 | [8] 0.023 | IRAK-1-4 Inhibitor I 0.094 | ibrutinib 0.032 | [14] 0.045 | ralimetinib 0.014 | [9] -0.013 | [10] -0.095 | [16] -0.111 | [12] -0.07 | [13] -0.086 | [15] -0.001

CWC25 (UniProt Q9NXE8)
inactive: [1] 0.043 | [3] 0.038 | [4] 0 | [6] 0.028 | [7] 0.085 | [8] -0.379 | ibrutinib 0.145 | [14] 0.011 | [16] 0.173 | [12] 0.424 | [15] 0.015

CRTC2 (UniProt H0YDQ8)
inactive: [1] 0.017 | [3] 0.057 | [5] 0.018 | [6] -0.075 | IRAK-1-4 Inhibitor I 0.03 | ralimetinib -0.056 | [9] -0.102 | [13] 0.128

CTIF (UniProt O43310)
inactive: [1] 0.193 | [3] -0.232 | [6] -0.124

CTDSP1 isoform 3 (UniProt Q9GZU7)
inactive: [4] -0.103 | ibrutinib 0.009

2 records drawn at random from the list so far, as already listed:
CREB3L2 (UniProt Q70SY1)
inactive: erlotinib -0.004 | [1] 0.013 | [2] -0.02 | [3] -0.187 | [4] -0.01 | [5] 0.027 | [6] 0.067 | [7] 0.007 | [8] 0.043 | IRAK-1-4 Inhibitor I 0.03 | ibrutinib -0.029 | [14] 0.002 | ralimetinib -0.133 | [9] -0.061 | [10] -0.031 | [16] 0.102 | [11] -0.135 | [13] 0.061 | [15] -0.148

CRTC3 (UniProt Q6UUV7)
inactive: erlotinib 0.039 | [1] -0.268 | [2] 0.042 | [3] 0.06 | [4] -0.118 | [5] -0.017 | [6] -0.131 | [7] 0.029 | [8] -0.012 | IRAK-1-4 Inhibitor I -0.011 | ibrutinib -0.057 | ralimetinib 0.093 | [9] -0.05 | [10] 0.01 | [11] -0.008 | [12] -0.011 | [13] -0.029

(cont.)

CSRP2 (UniProt Q16527)
inactive: [4] -0.097 | [7] 0.043 | [8] -0.003 | ibrutinib 0.054 | [12] 0.271

CSGALNACT2 (UniProt Q8N6G5)
inactive: erlotinib 0.026 | [2] -0.257 | [14] -0.091 | [10] -0.021 | [11] -0.132 | [12] 0.135 | [15] 0.091

CTBP1 (UniProt E7ESU7)
inactive: [16] 0.032
